Our source for the binding signal values is publication PMC7819943, “Rice protein-binding microarrays: a tool to detect cis-acting elements near promoter regions in rice”.

Chains of the proteins cited; added tags and fusions are not shown.
UniProt Q0JBA9, entry or part of it: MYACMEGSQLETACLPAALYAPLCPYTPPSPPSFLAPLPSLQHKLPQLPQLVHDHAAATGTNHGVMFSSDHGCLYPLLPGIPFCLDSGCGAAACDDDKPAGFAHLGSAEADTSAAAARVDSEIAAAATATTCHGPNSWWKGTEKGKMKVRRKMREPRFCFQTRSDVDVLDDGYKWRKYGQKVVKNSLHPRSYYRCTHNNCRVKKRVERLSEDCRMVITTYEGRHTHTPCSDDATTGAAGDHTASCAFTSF

The other results are listed elsewhere or left out.

In this experiment the target is OsWRKY34 (Oryza sativa, UniProt Q0JBA9 1-250). Put plainly: protein-binding microarray (RPBM); PBS, 2% BSA, 51.3 ng/ul salmon testes DNA, 50 uM zinc acetate, 200 nM TF, 25 C, 1 h; high values mean tight binding. The conditions noted are these: protein: recombinant; tags: N-terminal polyhistidine and DsRed monomer fusion (pET32a); label: CyDye5-dUTP incorporated in the synthesized complementary strand; 3' TTTTT single-stranded linker to array surface; dsDNA, one strand shown. The method in brief:
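Transcription factors, each fused N-terminally to a polyhistidine tag and DsRed, were expressed in E. coli BL21-CodonPlus and purified on Ni–NTA. A custom Agilent array was made double-stranded by primer extension with Cy5-dUTP and blocked with 2% BSA. It was incubated with 200 nM protein in PBS, 2% BSA, salmon testes DNA and 50 µM zinc acetate at 25 °C for 1 h, then washed. The binding signal is per-feature fluorescence intensity (arbitrary units) read on an Axon 4000B scanner.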
As to “CTCTCGCCGTCTCCATCTCCGCCTCGAATCCTTCCCTCTCCGGAGTCACCTAGTGCAG”, the binding signal is 11700 fluorescence intensity (a.u.).

In the case of “ACCGTCCTCCGCGCCGCTCACCGACCTCGACGGCGTCCTCCGGAGTCACCTAGTGCAG”, the binding signal is 8330 fluorescence intensity (a.u.).

Regarding “CTCGGCCCGCTCTGCTTCGACGTCGGCCCCTCCGCGCTGTCGGAGTCACCTAGTGCAG”, the binding signal was 9040 fluorescence intensity (a.u.).

Take “CATCCGTTCCCAGATACTGGTCCTTCAACCGCGATCCACGCGGAGTCACCTAGTGCAG”: the binding signal was 8170 fluorescence intensity (a.u.).

As to “CCAGCGTTGTTGGATCGCCAACTATATTTGCCACTATCATCGGAGTCACCTAGTGCAG”, the binding signal is 8960 fluorescence intensity (a.u.).

With “CATTTCGATTATTCCTGAGACGTTGCTTCTTGCTTGTGCTCGGAGTCACCTAGTGCAG”, the binding signal is 9080 fluorescence intensity (a.u.).

Consider “GGGTAGGGGTAGGGTTGATAGAGAGAGGTTCCGGGATGACCGGAGTCACCTAGTGCAG”, for which the binding signal is 8860 fluorescence intensity (a.u.).

For the sequence “TCGATCTCATCCCAACCTGTTCGATCGTCGCCTCCGCCGACGGAGTCACCTAGTGCAG”, the binding signal was 10600 fluorescence intensity (a.u.).

For the sequence “ATCTGCTGCCTACTGCGATTTTATCTTTTGTTTCTGTGGCCGGAGTCACCTAGTGCAG”, the binding signal is 10600 fluorescence intensity (a.u.).

As for “CCACCGTTGGTCGACCCCGTTCCGTTTGGCCGTTTCCCAACGGAGTCACCTAGTGCAG”, the binding signal is 10300 fluorescence intensity (a.u.).

As to “AAGATAGAGCTGACACGTGGGTTTTAGGTATTTTGGTTAACGGAGTCACCTAGTGCAG”, the binding signal is 8240 fluorescence intensity (a.u.).

Take “GTCATAGAATATATCATATCCGGTTCTAGATTCGTTTTTTCGGAGTCACCTAGTGCAG”: the binding signal is 8510 fluorescence intensity (a.u.).

As for “GAGAGCTGTCTCCGCCACTACATATCACCCAACCAACTTCCGGAGTCACCTAGTGCAG”, the binding signal was 11000 fluorescence intensity (a.u.).

For the sequence “GGCCGGCGTGGTGGGTTGGAGGGGCGCATGCTCCCGCTGGCGGAGTCACCTAGTGCAG”, the binding signal was 11000 fluorescence intensity (a.u.).

Consider “CCAGTCAATTAGTCAAACCCCATCCACCTCTCCTGGCTCTCGGAGTCACCTAGTGCAG”, for which the binding signal is 8210 fluorescence intensity (a.u.).

As to “CGCGAGAGCTACATTTTTGTCTTCGTTTTAATCACGTCAACGGAGTCACCTAGTGCAG”, the binding signal was 9210 fluorescence intensity (a.u.).

“TGTACCCCTGAAATTTCGCTTTGATCTCTTCCGTGTGTTCCGGAGTCACCTAGTGCAG”: the binding signal is 8980 fluorescence intensity (a.u.).

As to “CATCTTCTCGCTCGCCTCTCGCTGTCTCGCACTCGCCGCCCGGAGTCACCTAGTGCAG”, the binding signal is 9550 fluorescence intensity (a.u.).

Regarding “GTTGAGGGACGCGTTATATTTGGGGCTTGTTCACTTTGATCGGAGTCACCTAGTGCAG”, the binding signal was 8230 fluorescence intensity (a.u.).

As to “AACGACCACACCAGATGATCTCTCCGCACGCCGTCCTGTCCGGAGTCACCTAGTGCAG”, the binding signal is 11600 fluorescence intensity (a.u.).

For “ACTCCTCACATATATATATATACCACATTGTTGTCATGGCCGGAGTCACCTAGTGCAG”, the binding signal is 8490 fluorescence intensity (a.u.).

Turning to “CTTCCTGTCTCCTTCTTCTTCAGGGAAGTCTATTTCTTTTCGGAGTCACCTAGTGCAG”, the binding signal was 8590 fluorescence intensity (a.u.).

“ATGTTTTTCCTATTTCTCCGTTTTTTCATTCCTGTAATTCCGGAGTCACCTAGTGCAG”: the binding signal was 8080 fluorescence intensity (a.u.).

For the sequence “TAGAGAAAATAACGTGGAGCTGAGACGGGTGGTGGAGGGGCGGAGTCACCTAGTGCAG”, the binding signal was 10200 fluorescence intensity (a.u.).

On to “CCCCGCCATCGCGGACTCCAATGATAAAATATCCTCTTCTCGGAGTCACCTAGTGCAG”, for which the binding signal is 8800 fluorescence intensity (a.u.).

For the sequence “CTTATAAACGCCGCTTTGTGCTTCAATGCCACCAACTCAACGGAGTCACCTAGTGCAG”, the binding signal was 13000 fluorescence intensity (a.u.).

“TCGCTGTTTAGTTATGAAATTAGTTTTTTCATTCGTGTCCCGGAGTCACCTAGTGCAG”: the binding signal is 8980 fluorescence intensity (a.u.).

Consider “GGACGTAGCCGTCGTCCTAGTCACTCACTCACTCATCACGCGGAGTCACCTAGTGCAG”, for which the binding signal is 8780 fluorescence intensity (a.u.).

With “GACCCATGCTTTACTTCTTAAATCATATAGACTTATATAACGGAGTCACCTAGTGCAG”, the binding signal is 9360 fluorescence intensity (a.u.).

Consider “GGAAGGAGCGGGTGTGGGATGGGATCTGAGAGGGTGAGGACGGAGTCACCTAGTGCAG”, for which the binding signal is 12100 fluorescence intensity (a.u.).

As for “TCTTTCCGTTGACTCTCGCGATTCCAAACACGATGGCTTGCGGAGTCACCTAGTGCAG”, the binding signal was 11000 fluorescence intensity (a.u.).

On to “TATATCCTATCTCTCACTTCACTCATATAGTGGTTAACTCCGGAGTCACCTAGTGCAG”, for which the binding signal was 9570 fluorescence intensity (a.u.).

Regarding “AGTTATCTGATTTGCCCTTGTATTGGTTTGTATCACGTCGCGGAGTCACCTAGTGCAG”, the binding signal was 13400 fluorescence intensity (a.u.).

In the case of “GGCAGGCAGGGGAACGCAAGGCATATCGTCGTCAATTCGTCGGAGTCACCTAGTGCAG”, the binding signal is 8750 fluorescence intensity (a.u.).

For “TCGCCTTCACGGGCTCCCGTTGCCGTCTCGCGTCGTGCCCCGGAGTCACCTAGTGCAG”, the binding signal was 8180 fluorescence intensity (a.u.).

With “TCTCTTTCCTTCTTTCCCCTTCCCGTTGACTTCACCGGGACGGAGTCACCTAGTGCAG”, the binding signal was 9490 fluorescence intensity (a.u.).

For the sequence “CAAACGTTCGATACGGATATCCACGGCTGCACTTATTTTGCGGAGTCACCTAGTGCAG”, the binding signal is 8120 fluorescence intensity (a.u.).

For the sequence “GCCCGTACAGCCAACTCCACACCGCGTTCTGCAGCCACGTCGGAGTCACCTAGTGCAG”, the binding signal is 8800 fluorescence intensity (a.u.).

Take “AGTCAAGAACTGCGACTGTTTTGTCTGCATCGAATTCTTTCGGAGTCACCTAGTGCAG”: the binding signal is 8030 fluorescence intensity (a.u.).

For “TCCCCGAGCCCCGCGTCCTGCGCCACCGCCGCCCCGGCGACGGAGTCACCTAGTGCAG”, the binding signal was 9520 fluorescence intensity (a.u.).

With “ATTTTTTCATGTGTGTGTGTGGAGTATTAAATTTGAAAGTCGGAGTCACCTAGTGCAG”, the binding signal is 8750 fluorescence intensity (a.u.).

On to “TGAGCCTCAATCTTCTTGTTGGGCCGATACTTTCTCTATTCGGAGTCACCTAGTGCAG”, for which the binding signal is 8340 fluorescence intensity (a.u.).
